Experimental data: PubChem BioAssay AID686938 (Drosophila RNAi Screening Center, 2013)

Aim: 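Looking for CRAC channel components and the factors controlling them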 (primary screen)
Cells: Drosophila S2R+ cells
Reagent: long dsRNA against Drosophila genes, about 0.25 µg dsRNA per well, roughly 10,000 cells
Duration: 5 days of knock-down before the calcium assay
Treatment: thapsigargin (SERCA pump blocker) to empty calcium stores; entry signal taken 4 min after adding it
Measured: 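Per-well fluo-4 fluorescence in two replicates, unnormalised, measured in resting cells and 4 min after store depletion by the SERCA blocker thapsigargin; ratio of the two present in few wells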
Reading the numbers: calcium entry signal: higher = stronger calcium signal after store depletion; entry to resting ratio: higher = more calcium entry relative to resting level; resting calcium signal: higher = higher resting calcium signal
Rule for the call: 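Called when the plate z-score of the entry-to-rest ratio, mean of duplicates, falls below −3; wells with low overall dye signal (Fmax z below −2) or more than five off-targets excluded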
Meaning of the calls: active = strongly reduced calcium entry; inactive = no strong reduction
The screen tested about 23,000 reagents; below is an unselected part of those with a known target gene and a result. In the full data, 75 (0.33%) were called active. 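Raw plate signals without normalisation; calls rest on plate z-scores that were not deposited; ratio present for only 364 wells.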 Names joined by + are all predicted targets of the reagent. The record does not give: the dose of the treatment.

gene	amplicon	calcium entry signal, replicate 1 (fluorescence units)	calcium entry signal, replicate 2 (fluorescence units)	entry to resting ratio	resting calcium signal, replicate 1 (fluorescence units)	resting calcium signal, replicate 2 (fluorescence units)	Outcome
eEF1gamma	DRSC16659	1.52e7	1.85e7		9.99e6	1.08e7	inactive
CG14013	DRSC02344	2.48e7	2.92e7		1.24e7	1.36e7	inactive
CG9445	DRSC05006	2.19e7	3.02e7		1.06e7	1.30e7	inactive
CG10147	DRSC09706	3.60e7	6.12e7		1.69e7	2.60e7	inactive
CG3515	DRSC00609	3.66e7	3.71e7		1.73e7	1.65e7	inactive
Cht9	DRSC04079	3.93e7			1.93e7		inactive
CG14218	DRSC19575	3.69e7	6.05e7		2.07e7	2.67e7	inactive
MFS9	DRSC15560	3.41e7	3.56e7		1.72e7	1.53e7	inactive
CG14414	DRSC19599	3.33e7	3.00e7		1.69e7	1.31e7	inactive
CG32087	DRSC10806	2.23e7	3.36e7		1.24e7	1.52e7	inactive
CG12093	DRSC08252	4.14e7	3.33e7		2.04e7	1.75e7	inactive
Mcm10	DRSC03162	3.02e7			1.34e7		inactive
CG15831 (retired record)	DRSC20816	4.12e7	5.33e7		2.22e7	2.29e7	inactive
alpha4GT2	DRSC13732	3.47e7	3.79e7		1.62e7	1.66e7	inactive
alpha4GT2	DRSC15905	4.00e7	6.42e7		2.09e7	2.59e7	inactive
CG4520	DRSC15590	2.47e7	3.76e7		1.29e7	5.53e7	inactive
pck	DRSC18565	2.17e7	2.55e7		1.10e7	1.30e7	inactive
CG14817	DRSC18547	6.14e7	6.19e7	2.4	2.60e7	2.31e7	inactive
shams	DRSC16590	4.34e7	5.91e7		2.12e7	2.64e7	inactive
CG5767	DRSC06953	4.51e7	4.32e7		1.98e7	2.11e7	inactive
RabX6	DRSC08223	4.02e7	3.57e7		1.96e7	1.60e7	inactive
CG12310	DRSC09878	3.65e7	6.93e7		1.80e7	2.32e7	inactive
Fancd2	DRSC15208	4.05e7	5.60e7		5.94e7	2.53e7	inactive
Fancd2	DRSC22763	4.65e7	4.29e7		2.51e7	1.97e7	inactive
Fbxl4	DRSC19805	2.77e7	3.50e7		1.40e7	1.60e7	inactive
pyx	DRSC08510	3.50e7	4.44e7		1.86e7	1.96e7	inactive
pyx	DRSC08511	3.28e7	3.99e7		1.70e7	1.98e7	inactive
comr	DRSC04138	4.58e7	5.12e7		2.21e7	2.13e7	inactive
CR33318	DRSC22949	2.38e7	3.77e7		1.20e7	1.44e7	inactive
mRpS6	DRSC08470	2.06e7	3.42e7		9.46e6	1.42e7	inactive
Faa	DRSC08451	4.76e7	2.90e7		3.04e7	1.31e7	inactive
CG7639	DRSC07026	3.51e7	4.98e7		1.85e7	2.12e7	inactive
CG13123	DRSC02219	3.75e7	4.54e7		1.70e7	1.76e7	inactive
rho-5	DRSC02847	3.38e7	3.93e7		1.69e7	1.93e7	inactive
CG31010	DRSC14006	2.77e7	3.64e7		1.33e7	1.45e7	inactive
CG13029	DRSC09909	5.10e7	7.72e7		2.45e7	2.79e7	inactive
CG15914	DRSC19739	3.67e7	3.17e7		1.93e7	1.56e7	inactive
Paics	DRSC20305	3.76e7	4.38e7		1.84e7	1.93e7	inactive
obst-I	DRSC08339	4.37e7	3.57e7		1.87e7	1.73e7	inactive
CG31068	DRSC13820	3.26e7	4.49e7		1.67e7	2.14e7	inactive
TBC1D5	DRSC16421	4.49e7	5.24e7		1.82e7	2.10e7	inactive
OSCP1	DRSC06304	1.71e7	3.33e7		9.47e6	1.38e7	inactive
CG6638	DRSC10680	2.78e7	4.58e7		1.46e7	2.09e7	inactive
tplus3a + tplus3b	DRSC03687	3.12e7	5.89e7		1.46e7	2.24e7	inactive
CG13202	DRSC06326	3.02e7	3.47e7		1.57e7	1.78e7	inactive
Nup107	DRSC01999	1.44e7	2.29e7		8.33e6	1.17e7	inactive
CG10486	DRSC09735	2.03e7	3.59e7		1.01e7	1.53e7	inactive
CG30010	DRSC05193	2.85e7	6.40e7		1.47e7	2.71e7	inactive
Nt5a	DRSC08561	3.27e7	2.84e7		1.53e7	1.45e7	inactive
CG3792	DRSC02725	3.67e7	3.61e7		1.71e7	1.59e7	inactive
tbc	DRSC20540	5.47e7	4.99e7		2.67e7	2.18e7	inactive
tbc	DRSC23084	4.02e7	2.90e7		1.95e7	1.25e7	inactive
CG11345	DRSC08176	1.77e7	3.05e7		8.08e6	1.24e7	inactive
Gr22d	DRSC21653	3.94e7	3.72e7		2.35e7	1.82e7	inactive
slo	DRSC13685	3.79e7	3.10e7		1.63e7	1.73e7	inactive
slo	DRSC17057	4.06e7	3.96e7		1.86e7	1.72e7	inactive
slo	DRSC21896	3.39e7	5.80e7		1.62e7	2.96e7	inactive
slo	DRSC23295	3.78e7	3.61e7		1.93e7	1.65e7	inactive
Cys	DRSC16637	3.01e7	5.57e7		1.48e7	6.85e7	inactive
CG34112	DRSC12235	3.22e7	4.95e7		1.46e7	2.08e7	inactive
CG10914	DRSC06010	4.48e7	5.41e7		1.93e7	2.54e7	inactive
CG13018	DRSC06274	3.46e7	3.56e7		1.65e7	1.65e7	inactive
nullo	DRSC18807	3.68e7	4.45e7		1.79e7	2.12e7	inactive
Mat89Ba	DRSC14540	2.34e7	2.05e7		1.36e7	1.11e7	inactive
CR33013	DRSC06286	2.67e7	4.52e7		1.37e7	1.86e7	inactive
Pdcd4	DRSC19360	2.15e7	1.43e7		1.15e7	7.78e6	inactive
glec	DRSC16958	4.07e7	3.36e7		6.47e7	1.68e7	inactive
cas	DRSC12373	4.88e7	3.06e7		2.38e7	1.60e7	inactive
kuz	DRSC03555	3.54e7	2.24e7		1.77e7	1.27e7	inactive
ball	DRSC14145	2.99e7	3.56e7		1.69e7	2.00e7	inactive
CG5080	DRSC00677	3.66e7			2.23e7		inactive
lncRNA:CR42862 + CG33229	DRSC08497	4.25e7	3.24e7		1.91e7	1.68e7	inactive
puf	DRSC15875	3.34e7	6.29e7		2.34e7	3.58e7	inactive
puf	DRSC23167	2.97e7	3.39e7		1.61e7	1.49e7	inactive
CG10725	DRSC09788	4.40e7	3.05e7		2.76e7	1.50e7	inactive

7 of these entries in another layout:
CG31010 [DRSC14006]
- calcium entry signal, replicate 1 (fluorescence units): 2.77e7
- calcium entry signal, replicate 2 (fluorescence units): 3.64e7
- resting calcium signal, replicate 1 (fluorescence units): 1.33e7
- resting calcium signal, replicate 2 (fluorescence units): 1.45e7
- Outcome: inactive

CG13029 [DRSC09909]
- calcium entry signal, replicate 1 (fluorescence units): 5.10e7
- calcium entry signal, replicate 2 (fluorescence units): 7.72e7
- resting calcium signal, replicate 1 (fluorescence units): 2.45e7
- resting calcium signal, replicate 2 (fluorescence units): 2.79e7
- Outcome: inactive

CG15914 [DRSC19739]
- calcium entry signal, replicate 1 (fluorescence units): 3.67e7
- calcium entry signal, replicate 2 (fluorescence units): 3.17e7
- resting calcium signal, replicate 1 (fluorescence units): 1.93e7
- resting calcium signal, replicate 2 (fluorescence units): 1.56e7
- Outcome: inactive

Paics [DRSC20305]
- calcium entry signal, replicate 1 (fluorescence units): 3.76e7
- calcium entry signal, replicate 2 (fluorescence units): 4.38e7
- resting calcium signal, replicate 1 (fluorescence units): 1.84e7
- resting calcium signal, replicate 2 (fluorescence units): 1.93e7
- Outcome: inactive

obst-I [DRSC08339]
- calcium entry signal, replicate 1 (fluorescence units): 4.37e7
- calcium entry signal, replicate 2 (fluorescence units): 3.57e7
- resting calcium signal, replicate 1 (fluorescence units): 1.87e7
- resting calcium signal, replicate 2 (fluorescence units): 1.73e7
- Outcome: inactive

CG31068 [DRSC13820]
- calcium entry signal, replicate 1 (fluorescence units): 3.26e7
- calcium entry signal, replicate 2 (fluorescence units): 4.49e7
- resting calcium signal, replicate 1 (fluorescence units): 1.67e7
- resting calcium signal, replicate 2 (fluorescence units): 2.14e7
- Outcome: inactive

TBC1D5 [DRSC16421]
- calcium entry signal, replicate 1 (fluorescence units): 4.49e7
- calcium entry signal, replicate 2 (fluorescence units): 5.24e7
- resting calcium signal, replicate 1 (fluorescence units): 1.82e7
- resting calcium signal, replicate 2 (fluorescence units): 2.10e7
- Outcome: inactive
